Data published in PubChem BioAssay AID1487 (National Center for Advancing Translational Sciences (NCATS), 2009).
Some of the results follow. These are further read-outs of the screen, such as a control signal, another cell line or another target. No call is given for them. Most of these compounds were active or inconclusive in the main read-out, so they are no random draw. Words in brackets tell the shape of the fitted curve; partial curves, single points and poor fits give uncertain potencies.

Assay: qHTS Assay for Modulators of Lamin A Splicing
Conditions: HeLa LMNA splicing GFP/RFP minigene ratio, 48 h
Method in brief: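 Read-out is the ratio of GFP to DsRed2 object intensity, acquired by 488 nm laser-scanning cytometry on HeLa lamin A-EGFP minigene reporter cells. Compound incubation 48 hrs at 37 °C in Opti-MEM with 2% FBS; DMSO 0.5% final.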

[1] = measured here: RFP viability control channel
[2] = measured here: GFP splicing reporter channel

COc1ccc(/C=N/OCC(=O)NC(c2ccccc2)c2ccccc2)cc1OC
AC50 [1]: 1.26 µM [rising, full curve]

O=C(O)c1ccc(CSc2nnc(-c3cccnc3)n2-c2ccc(Br)cc2)cc1
AC50 [2]: 7.94 µM [rising, partial curve, poor fit]
AC50 [1]: 3.98 µM [rising, full curve]

Cc1nc2c(c3c1[nH]c1ccccc13)C(O)CC(C)(C)C2 (stereo unspecified)
AC50 [1]: 35.5 µM [rising, single point]

CCN(CC)CCNc1ccnc2cc(Cl)ccc12
AC50 [1]: 7.08 µM [rising, partial curve]

CC(=O)Nc1ccc2nc(SCC(=O)O)sc2c1
AC50 [1]: 0.00398 µM [falling, full curve, poor fit]

O=C(CSc1nnc(CNc2ccc(F)cc2)o1)c1ccccc1
AC50 [2]: 0.251 µM [falling, full curve, poor fit]

O=C(O)CSc1cc(C(=O)c2ccccc2O)cn2c(=O)c3c(-c4ccccc4)csc3nc12
AC50 [1]: 20 µM [rising, single point]

O=C(c1ccc2c(c1)OCO2)C1CCCN(C(=O)NCc2ccccc2)C1 (stereo unspecified)
AC50 [2]: 1 µM [rising, full curve, poor fit]
AC50 [1]: 1 µM [rising, full curve, poor fit]

Cc1c(C(=O)O)cnc2cc(-c3ccc(Cl)cc3)nn12
AC50 [1]: 0.708 µM [rising, full curve, poor fit]

CC(=O)Nc1ccc(S(=O)(=O)NCC2CCC(C(=O)NC3CCCCCC3)CC2)cc1 (stereo unspecified)
AC50 [2]: 6.31 µM [rising, partial curve, poor fit]

N#CCCN1CCN(C(=S)c2ccc(-c3cccc(Cl)c3)o2)CC1
AC50 [1]: 14.1 µM [rising, single point]

CCOC(=O)c1c(C)[nH]c(C(=O)CSc2nnc(CC(C)c3ccccc3)o2)c1C (stereo unspecified)
AC50 [1]: 15.8 µM [rising, single point]

O=C(NCc1ccco1)C(c1cccs1)N(C(=O)C1COc2ccccc2O1)c1cccc(O)c1 (stereo unspecified)
AC50 [1]: 1.26 µM [rising, full curve, poor fit]

O=C(CSc1nc2ccccc2c(=O)n1-c1ccc(Cl)cc1)N/N=C/C=C/c1ccccc1[N+](=O)[O-]
AC50 [1]: 0.01 µM [rising, full curve, poor fit]

COc1ccc(/C=N/Nc2ncnc3sc4c(c23)CCCC4)cc1O
AC50 [2]: 11.2 µM [rising, partial curve]
AC50 [1]: 14.1 µM [rising, partial curve]

Cc1cc(C)nc(SCc2nnc(SCc3ccc([N+](=O)[O-])cc3)n2Cc2ccco2)n1
AC50 [2]: 11.2 µM [rising, partial curve]
AC50 [1]: 20 µM [rising, partial curve, poor fit]

O=C(Nc1ccc(NC(=O)c2ccco2)c(Cl)c1)c1cccc([N+](=O)[O-])c1
AC50 [1]: 20 µM [rising, single point]

CC1(C)[C@H]2CC=C(CN3CCC(N4CCC(C(=O)N5CCCC5)CC4)CC3)[C@@H]1C2
AC50 [2]: 6.31 µM [rising, single point]

Cc1sc(NC(=O)/C=C/c2ccc3c(c2)OCO3)nc1-c1ccccc1
AC50 [2]: 0.355 µM [rising, partial curve]

O=C(CO)N/N=C/c1c2ccccc2cc2ccccc12
AC50 [1]: 6.31 µM [rising, partial curve, poor fit]

CN(CC1CCCO1)S(=O)(=O)c1ccc(C(=O)Nc2nc(-c3ccccn3)cs2)cc1 (stereo unspecified)
AC50 [1]: 3.98 µM [rising, full curve]

O=C1NN=C(c2ccccc2)CC1c1c[nH]c2ccccc12 (stereo unspecified)
AC50 [1]: 0.355 µM [rising, partial curve]

Cn1c(NC(=O)c2ccc(S(=O)(=O)N3CCCCC3)cc2)cc(=O)n(C)c1=O
AC50 [2]: 35.5 µM [rising, single point]

O=S(Cc1ccc(Br)cc1)Cc1nnc(SCc2c(Cl)cccc2Cl)n1-c1ccccc1 (stereo unspecified)
AC50 [2]: 35.5 µM [falling, single point]

COc1ccc(CNc2ncnc3ccc(-c4ccccc4C#N)cc23)c(OC)c1
AC50 [2]: 17.8 µM [falling, partial curve]
AC50 [1]: 20 µM [falling, partial curve]

Cc1cccc(N2CCN(CC(=O)Nc3ccccc3[N+](=O)[O-])CC2)c1C
AC50 [2]: 35.5 µM [falling, single point]
AC50 [1]: 35.5 µM [falling, single point]

COc1ccc(CCNC(=O)COc2ccc(S(=O)(=O)N3CCCC3)cc2)cc1
AC50 [2]: 1 µM [falling, full curve, poor fit]

CC(C)(C)SCCNS(=O)(=O)c1ccc2ccccc2c1
AC50 [2]: 35.5 µM [rising, single point]
AC50 [1]: 31.6 µM [rising, single point]

CC(C)N1C/C(=C/c2cccnc2)C(=O)/C(=C/c2cccnc2)C1
AC50 [2]: 35.5 µM [falling, single point]
AC50 [1]: 35.5 µM [falling, single point]

COc1ccc(N2C(=O)CSCC2=O)cc1OC
AC50 [1]: 0.562 µM [rising, full curve, poor fit]

COc1ccc2c(c1)O[C@@H](c1cccc(C(F)(F)F)c1)[C@H](OC(=O)Nc1ccc(OC(F)F)cc1)C2=O
AC50 [2]: 17.8 µM [rising, single point]
AC50 [1]: 35.5 µM [rising, single point]

CCSc1nc2ccccc2n1CCOc1ccccc1
AC50 [2]: 35.5 µM [rising, single point]
AC50 [1]: 35.5 µM [rising, single point]

O=c1c2cc(Cl)ccc2nc(-c2ccccc2)n1O
AC50 [1]: 0.0112 µM [rising, full curve, poor fit]

CCc1c(C)sc2c1CCN(C(=O)Nc1ccccc1C(=O)OC)C2c1ccc(OC)cc1 (stereo unspecified)
AC50 [1]: 7.08 µM [rising, partial curve]

Cc1ccc(Cl)cc1N1CCN(C(=O)c2cc3ccc4cccnc4c3[nH]2)CC1
AC50 [1]: 10 µM [rising, partial curve]

CC(C)c1ccc(C2=CC(c3cccc(Cl)c3)n3c(nc4ccccc43)N2)cc1 (stereo unspecified)
AC50 [2]: 3.98 µM [rising, full curve, poor fit]
